No constants are given. Whether binding was seen depends on the method and setting. Binding seen in cells or lysates may run through a third protein. A yes stands for co-enrichment or nearness to the bait. Other partners may have been found. Sequences can lack the tags named with a protein.

Chains of the proteins cited; added tags and fusions are not shown. Residues count along the entry.
UniProt P27824, residues 21-592: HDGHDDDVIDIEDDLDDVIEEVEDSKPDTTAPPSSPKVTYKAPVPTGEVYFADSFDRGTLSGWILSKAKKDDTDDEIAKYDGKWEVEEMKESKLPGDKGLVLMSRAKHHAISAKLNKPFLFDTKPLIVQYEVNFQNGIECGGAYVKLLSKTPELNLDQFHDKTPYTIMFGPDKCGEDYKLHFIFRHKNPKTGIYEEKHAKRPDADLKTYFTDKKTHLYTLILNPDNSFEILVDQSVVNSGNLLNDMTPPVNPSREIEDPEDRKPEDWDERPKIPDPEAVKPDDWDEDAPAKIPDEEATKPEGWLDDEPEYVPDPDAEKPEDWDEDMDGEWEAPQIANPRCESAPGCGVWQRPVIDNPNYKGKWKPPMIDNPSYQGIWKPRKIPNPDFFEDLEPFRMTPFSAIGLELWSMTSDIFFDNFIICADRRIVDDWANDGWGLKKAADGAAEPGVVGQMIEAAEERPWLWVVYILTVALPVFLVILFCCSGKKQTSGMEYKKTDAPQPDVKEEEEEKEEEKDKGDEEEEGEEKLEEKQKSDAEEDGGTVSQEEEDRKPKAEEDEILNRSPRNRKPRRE
UniProt Q9UBS4, residues 23-358: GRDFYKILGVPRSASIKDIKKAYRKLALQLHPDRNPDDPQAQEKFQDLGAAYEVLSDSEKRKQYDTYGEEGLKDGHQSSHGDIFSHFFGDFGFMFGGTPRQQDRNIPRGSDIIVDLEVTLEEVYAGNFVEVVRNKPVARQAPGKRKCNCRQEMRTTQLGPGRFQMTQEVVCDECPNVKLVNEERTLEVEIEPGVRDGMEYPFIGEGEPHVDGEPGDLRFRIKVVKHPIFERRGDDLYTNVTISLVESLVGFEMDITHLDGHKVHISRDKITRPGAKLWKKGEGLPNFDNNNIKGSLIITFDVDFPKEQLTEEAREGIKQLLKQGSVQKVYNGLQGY

The test deals with T1, V5-FLAG-tagged wild-type β-glucocerebrosidase (GCase) (human) (UniProt P04062).
T1 sequence: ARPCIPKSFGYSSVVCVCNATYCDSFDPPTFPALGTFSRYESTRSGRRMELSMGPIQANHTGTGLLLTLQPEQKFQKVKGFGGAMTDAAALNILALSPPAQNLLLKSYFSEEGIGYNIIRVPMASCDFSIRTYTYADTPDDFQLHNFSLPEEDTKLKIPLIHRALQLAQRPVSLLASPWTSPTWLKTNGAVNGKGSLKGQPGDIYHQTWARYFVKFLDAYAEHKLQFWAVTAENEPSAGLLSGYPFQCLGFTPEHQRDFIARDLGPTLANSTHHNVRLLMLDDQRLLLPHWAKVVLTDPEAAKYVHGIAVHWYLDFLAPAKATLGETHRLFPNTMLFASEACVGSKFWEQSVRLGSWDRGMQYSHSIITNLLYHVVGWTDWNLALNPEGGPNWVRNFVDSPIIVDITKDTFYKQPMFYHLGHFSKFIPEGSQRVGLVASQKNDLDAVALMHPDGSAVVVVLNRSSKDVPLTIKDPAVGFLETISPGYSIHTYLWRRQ
Nature of the test: affinity purification with mass spectrometry; anti-FLAG M2 agarose IP of V5-FLAG-GCase from T-Rex HEK lysate (1x TBS pH 7.4, 0.5% NP40), 2 h at 4 °C, FLAG peptide elution, TMT labelling and LC-MS; empty-vector cells as control; interactors: ≥2 unique peptides, enriched 1.5-fold over control.
As for calnexin (from UniProt P27824 21-592), the binding entry is “binds”. For the substance DNAJB11 (from UniProt Q9UBS4 23-358), the binding result is “binds”. As for “calreticulin (from UniProt P27797 18-417)”, the binding entry is given as “binds”.

The values are drawn from publication PMC10079970.
